T/C and survivor count data for two compounds are collected here from PubChem BioAssay AID236 (DTP/NCI, 2004).

The list shows only some results of the screen, not a fair sample: its compounds were picked by chemical class. Not every dose and run of a compound is shown. T/C: endpoint of the treated group in % of that of the vehicle group. Some entries give survivors of the animals treated and no T/C: the source holds a T/C of zero for them, seemingly a mark for toxic or unscored doses. Some doses without a T/C left all or most animals alive at the check, yet need not have been tolerated: the source hardly ever lists a survival T/C far under the control, and the zero likely stands for such cases as well. Survivors were counted at the toxicity check, usually on the fifth day, unless a day is given; later deaths do not show. Schedule codes are those of the source, taken here to give the interval after Q, in days (D) or hours (H), and the number of doses after X. Where survival is the endpoint, this PubChem deposit counts one and a half times the control or more as active, and values a quarter to a half above the control carry no call in these data; other NCI protocols may use other cut-offs. Some entries were tested several times; the results are listed from low to high.

This assay relates to AK4 lymphoid leukemia ip, C3AKF1 mice, survival. The assay is described as follows: NCI In Vivo Anticancer Drug Screen. Data for tumor model AK4 Lymphoid Leukemia (intraperitoneal) in C3AKF1 (CHKRF1) mice. To be noted: T/C endpoint: median survival time, schedule: Q01DX010 (ip), vehicle: saline, higher T/C = longer survival. On the procedure:
The antitumor activity of compounds was measured in mice bearing transplantable tumors. Survival or tumor size were measured and the results are expressed as the measurement made in the treated group (T) divided by the measurement made in the vehicle treated control group (C). The tumor model used in this assay is AK4 Lymphoid Leukemia (intraperitoneal) in C3AKF1 (CHKRF1) mice

`NC1CCCCC1.O=P(O)(N(CCCl)CCCl)N1CC1`: the T/C is 105 % of control (dose: 1.25 mg/kg/injection); 105 and 138 % of control (dose: 2.5 mg/kg/injection); 120 and 144 % of control (dose: 5.0 mg/kg/injection); 120 and 155 % of control (dose: 10.0 mg/kg/injection); 100 % of control (dose: 20.0 mg/kg/injection).
As for `Cc1[nH]c(=O)[nH]c(=O)c1N(CCCl)CCCl`, the T/C runs as follows: (dose: 0.5 mg/kg/injection) 116 % of control; (dose: 1.0 mg/kg/injection) 111 and 122 % of control; (dose: 2.0 mg/kg/injection) 116 and 144 % of control; (dose: 4.0 mg/kg/injection) 111 and 116 % of control. In addition, under “dose: 8.0 mg/kg/injection”, the survivor count is recorded as 6 of 6.
